# Results published in patent publication US8530680B2, “System and method for controlling growth of microorganisms with brominated furanones” (Syracuse University, priority 2008, dated 2013).
# System: C. albicans strain SC5341 gene expression
# Test: DNA microarray gene expression of C. albicans after BF1 treatment
# Type: cell-based, Candida albicans
# Conditions: 3 μg/mL BF1, 45 minutes
# Experimental: An overnight culture of C. albicans strain SC5341 grown in SD medium was sub-cultured in 25 mL of the same medium to an initial OD600 of 0.005 and grown till the OD600 was 1.0. The culture was diluted using fresh SD medium to a volume of 100 mL with an initial OD600 of 0.6, and it was grown till the OD600 reached 1.0, which took approximately 2 hours. Then the culture was split into two equal portions, with 3 μg/mL of BF1 added to the first one and the same amount of ethanol added to the second one to eliminate the effects of ethanol. […] Forty-five minutes after BF1 addition, the cells were harvested by centrifugation at 13,200 rpm at 4° C. for 30 sec and stored at −80° C. until RNA isolation. To lyse the cells, 1.5 mL of Trizol reagent (Invitrogen® Co., Carlsbad, Calif.) and 0.5 mL of 0.5 mm glass beads were added to the frozen tubes containing C. albicans cell pellets. […] The extracted RNA was further cleaned up using an RNeasy mini-kit (QIAGEN® Inc., Valencia, Calif.), including on-column DNA digestion with RNase-free DNase I. The RNA yield was quantified by OD260 reading, and the RNA integrity was checked, using agarose gel electrophoresis. […] The data were analyzed using Genespring GX version 7.3 (Agilent Technologies®, Santa Clara Calif.). […]
smiles,measurement,value
"CCCCC1=C(Br)/C(=C/Br)OC1=O [BF1, 4-bromo-5Z-(bromomethylene)-3-butylfuran-2-one]",number of genes repressed by at least 1.5-fold,21
same,total number of genes significantly modulated (P≦0.05),54
